Reference: the supplement of paper PMC12819154, “High-throughput peptide-centric local stability assay extends protein–ligand identification to membrane proteins, tissues and bacteria” (Nature Structural & Molecular Biology, 2025)
Some of the results follow. Small differences around the control level are noise.

Chains of the proteins cited; added tags and fusions are not shown. Lines headed by an entry give the natural chain unless they say otherwise; changes in a name come on top.
UniProt Q8BXR9: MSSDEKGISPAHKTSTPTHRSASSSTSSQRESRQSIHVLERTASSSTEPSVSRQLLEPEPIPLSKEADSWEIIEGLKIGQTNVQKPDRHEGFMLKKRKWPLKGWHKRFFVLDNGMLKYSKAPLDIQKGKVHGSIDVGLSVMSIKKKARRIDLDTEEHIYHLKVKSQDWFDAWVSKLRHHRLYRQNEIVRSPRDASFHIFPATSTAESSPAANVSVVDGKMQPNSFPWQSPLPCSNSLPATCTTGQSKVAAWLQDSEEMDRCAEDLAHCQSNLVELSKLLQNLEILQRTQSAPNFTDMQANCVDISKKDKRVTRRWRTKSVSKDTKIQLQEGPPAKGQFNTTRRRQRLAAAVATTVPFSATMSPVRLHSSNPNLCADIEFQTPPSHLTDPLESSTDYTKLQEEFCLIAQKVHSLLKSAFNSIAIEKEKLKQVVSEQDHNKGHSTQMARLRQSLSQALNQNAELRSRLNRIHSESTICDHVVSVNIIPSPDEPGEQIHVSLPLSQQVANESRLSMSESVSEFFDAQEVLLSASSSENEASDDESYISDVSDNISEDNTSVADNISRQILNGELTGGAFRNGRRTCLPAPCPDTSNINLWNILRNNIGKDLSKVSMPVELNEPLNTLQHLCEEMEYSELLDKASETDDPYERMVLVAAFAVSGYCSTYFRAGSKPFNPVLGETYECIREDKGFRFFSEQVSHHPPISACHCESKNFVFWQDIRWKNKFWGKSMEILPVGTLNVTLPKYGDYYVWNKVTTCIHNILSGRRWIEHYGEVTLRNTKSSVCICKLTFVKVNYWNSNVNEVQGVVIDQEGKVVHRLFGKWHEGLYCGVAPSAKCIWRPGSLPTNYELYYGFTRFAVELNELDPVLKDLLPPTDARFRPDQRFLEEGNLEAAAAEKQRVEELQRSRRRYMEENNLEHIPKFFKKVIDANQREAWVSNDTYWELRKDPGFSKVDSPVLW
UniProt Q8C0L8: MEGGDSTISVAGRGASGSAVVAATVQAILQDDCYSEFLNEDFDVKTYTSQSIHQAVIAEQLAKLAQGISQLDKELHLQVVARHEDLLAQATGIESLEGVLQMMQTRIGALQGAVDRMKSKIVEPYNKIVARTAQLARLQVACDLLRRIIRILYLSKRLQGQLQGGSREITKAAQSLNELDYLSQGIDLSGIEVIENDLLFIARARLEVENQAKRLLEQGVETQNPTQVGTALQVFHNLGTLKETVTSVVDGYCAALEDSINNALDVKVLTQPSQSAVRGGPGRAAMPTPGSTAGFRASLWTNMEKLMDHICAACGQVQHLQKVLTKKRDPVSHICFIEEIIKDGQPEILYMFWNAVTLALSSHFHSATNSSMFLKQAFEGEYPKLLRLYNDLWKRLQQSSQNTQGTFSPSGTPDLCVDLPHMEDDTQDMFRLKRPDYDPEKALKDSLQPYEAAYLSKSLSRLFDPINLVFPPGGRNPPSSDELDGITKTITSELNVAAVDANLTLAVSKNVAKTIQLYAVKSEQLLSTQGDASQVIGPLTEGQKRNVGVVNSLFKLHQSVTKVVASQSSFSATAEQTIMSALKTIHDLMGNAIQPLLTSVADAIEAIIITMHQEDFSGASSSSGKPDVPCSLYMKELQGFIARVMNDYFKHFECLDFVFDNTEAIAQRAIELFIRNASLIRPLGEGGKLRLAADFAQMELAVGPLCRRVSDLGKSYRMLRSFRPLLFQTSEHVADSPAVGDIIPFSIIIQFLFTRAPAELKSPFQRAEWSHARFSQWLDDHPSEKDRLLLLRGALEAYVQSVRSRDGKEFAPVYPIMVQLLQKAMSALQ
UniProt Q8BY02: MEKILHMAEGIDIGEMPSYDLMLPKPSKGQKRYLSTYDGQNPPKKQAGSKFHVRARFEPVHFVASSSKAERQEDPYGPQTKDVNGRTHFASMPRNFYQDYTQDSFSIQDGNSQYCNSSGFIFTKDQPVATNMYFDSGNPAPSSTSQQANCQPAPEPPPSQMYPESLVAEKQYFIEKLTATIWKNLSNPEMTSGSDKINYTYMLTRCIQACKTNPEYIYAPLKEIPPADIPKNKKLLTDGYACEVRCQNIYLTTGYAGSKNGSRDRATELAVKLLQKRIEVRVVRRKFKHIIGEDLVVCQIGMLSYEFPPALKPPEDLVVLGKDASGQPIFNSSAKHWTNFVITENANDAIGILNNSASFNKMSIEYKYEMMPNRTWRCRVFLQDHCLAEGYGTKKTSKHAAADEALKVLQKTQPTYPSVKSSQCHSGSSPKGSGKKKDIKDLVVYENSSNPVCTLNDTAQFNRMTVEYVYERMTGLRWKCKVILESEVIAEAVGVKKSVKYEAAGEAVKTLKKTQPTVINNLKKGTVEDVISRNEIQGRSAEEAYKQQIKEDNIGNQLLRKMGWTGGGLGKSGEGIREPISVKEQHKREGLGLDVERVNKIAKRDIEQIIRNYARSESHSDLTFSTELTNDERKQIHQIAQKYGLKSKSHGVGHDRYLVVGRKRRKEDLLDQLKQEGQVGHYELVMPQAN
UniProt Q8BYR2: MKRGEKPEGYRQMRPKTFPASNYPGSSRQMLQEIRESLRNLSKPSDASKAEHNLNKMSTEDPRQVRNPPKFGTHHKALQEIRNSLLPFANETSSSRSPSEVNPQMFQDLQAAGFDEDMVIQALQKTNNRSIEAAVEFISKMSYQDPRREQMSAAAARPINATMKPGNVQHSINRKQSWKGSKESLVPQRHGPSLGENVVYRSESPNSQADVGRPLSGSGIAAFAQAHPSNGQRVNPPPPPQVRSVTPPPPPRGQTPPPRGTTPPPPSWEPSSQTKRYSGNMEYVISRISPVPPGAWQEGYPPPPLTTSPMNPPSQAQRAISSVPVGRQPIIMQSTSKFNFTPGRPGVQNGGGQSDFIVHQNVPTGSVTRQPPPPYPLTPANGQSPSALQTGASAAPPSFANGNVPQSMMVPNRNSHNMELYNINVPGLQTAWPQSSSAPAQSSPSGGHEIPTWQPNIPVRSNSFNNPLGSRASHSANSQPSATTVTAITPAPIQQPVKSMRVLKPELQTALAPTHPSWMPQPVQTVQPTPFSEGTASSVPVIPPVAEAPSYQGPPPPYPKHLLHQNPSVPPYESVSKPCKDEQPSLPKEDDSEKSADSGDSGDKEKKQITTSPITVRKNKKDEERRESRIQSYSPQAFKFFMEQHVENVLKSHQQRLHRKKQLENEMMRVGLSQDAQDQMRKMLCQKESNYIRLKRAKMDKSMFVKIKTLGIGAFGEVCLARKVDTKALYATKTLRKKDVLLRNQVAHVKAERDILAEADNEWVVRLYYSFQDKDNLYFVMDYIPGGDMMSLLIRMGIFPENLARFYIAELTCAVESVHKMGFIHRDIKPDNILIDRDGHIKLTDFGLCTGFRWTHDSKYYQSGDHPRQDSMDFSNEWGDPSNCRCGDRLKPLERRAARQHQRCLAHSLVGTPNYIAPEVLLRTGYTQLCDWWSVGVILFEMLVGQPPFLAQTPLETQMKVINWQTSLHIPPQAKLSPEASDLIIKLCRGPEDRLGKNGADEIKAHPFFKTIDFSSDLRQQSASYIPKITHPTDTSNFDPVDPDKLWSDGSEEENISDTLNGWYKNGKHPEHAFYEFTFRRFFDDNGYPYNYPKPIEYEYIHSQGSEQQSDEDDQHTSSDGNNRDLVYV
UniProt Q8BW70: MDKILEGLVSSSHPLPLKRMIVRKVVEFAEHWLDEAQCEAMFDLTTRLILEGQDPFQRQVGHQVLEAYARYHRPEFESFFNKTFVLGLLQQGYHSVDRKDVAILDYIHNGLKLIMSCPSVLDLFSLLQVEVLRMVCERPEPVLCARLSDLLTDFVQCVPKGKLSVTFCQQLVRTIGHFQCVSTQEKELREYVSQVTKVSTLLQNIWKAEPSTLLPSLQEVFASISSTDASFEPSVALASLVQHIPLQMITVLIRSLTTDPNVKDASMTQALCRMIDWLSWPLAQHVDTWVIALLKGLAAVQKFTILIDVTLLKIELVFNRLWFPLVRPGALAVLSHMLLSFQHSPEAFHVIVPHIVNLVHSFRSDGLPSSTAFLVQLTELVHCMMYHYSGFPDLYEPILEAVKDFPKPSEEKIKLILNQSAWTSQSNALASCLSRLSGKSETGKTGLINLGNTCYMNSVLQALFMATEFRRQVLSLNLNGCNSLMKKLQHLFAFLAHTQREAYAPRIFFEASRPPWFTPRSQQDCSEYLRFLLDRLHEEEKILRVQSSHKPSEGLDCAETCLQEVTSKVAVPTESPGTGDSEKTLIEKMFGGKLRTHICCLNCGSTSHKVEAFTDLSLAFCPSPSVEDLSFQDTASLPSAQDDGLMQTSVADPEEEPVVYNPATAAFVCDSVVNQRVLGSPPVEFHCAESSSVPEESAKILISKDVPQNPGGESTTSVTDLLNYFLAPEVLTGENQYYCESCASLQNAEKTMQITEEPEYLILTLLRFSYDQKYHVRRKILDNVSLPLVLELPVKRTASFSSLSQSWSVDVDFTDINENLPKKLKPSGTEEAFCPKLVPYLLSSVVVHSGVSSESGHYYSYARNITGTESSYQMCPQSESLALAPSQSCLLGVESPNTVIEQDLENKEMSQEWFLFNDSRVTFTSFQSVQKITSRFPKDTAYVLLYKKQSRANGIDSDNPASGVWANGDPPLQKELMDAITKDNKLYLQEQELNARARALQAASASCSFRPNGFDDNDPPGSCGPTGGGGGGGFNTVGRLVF
UniProt Q8BX10: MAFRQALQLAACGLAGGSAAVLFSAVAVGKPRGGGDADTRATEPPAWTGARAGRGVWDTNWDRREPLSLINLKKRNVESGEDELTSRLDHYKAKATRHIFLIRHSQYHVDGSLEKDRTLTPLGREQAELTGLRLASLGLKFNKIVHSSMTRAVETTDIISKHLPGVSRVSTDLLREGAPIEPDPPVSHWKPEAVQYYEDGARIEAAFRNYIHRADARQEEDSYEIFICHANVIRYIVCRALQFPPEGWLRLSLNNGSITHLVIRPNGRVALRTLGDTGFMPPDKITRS
UniProt Q8C0Z1: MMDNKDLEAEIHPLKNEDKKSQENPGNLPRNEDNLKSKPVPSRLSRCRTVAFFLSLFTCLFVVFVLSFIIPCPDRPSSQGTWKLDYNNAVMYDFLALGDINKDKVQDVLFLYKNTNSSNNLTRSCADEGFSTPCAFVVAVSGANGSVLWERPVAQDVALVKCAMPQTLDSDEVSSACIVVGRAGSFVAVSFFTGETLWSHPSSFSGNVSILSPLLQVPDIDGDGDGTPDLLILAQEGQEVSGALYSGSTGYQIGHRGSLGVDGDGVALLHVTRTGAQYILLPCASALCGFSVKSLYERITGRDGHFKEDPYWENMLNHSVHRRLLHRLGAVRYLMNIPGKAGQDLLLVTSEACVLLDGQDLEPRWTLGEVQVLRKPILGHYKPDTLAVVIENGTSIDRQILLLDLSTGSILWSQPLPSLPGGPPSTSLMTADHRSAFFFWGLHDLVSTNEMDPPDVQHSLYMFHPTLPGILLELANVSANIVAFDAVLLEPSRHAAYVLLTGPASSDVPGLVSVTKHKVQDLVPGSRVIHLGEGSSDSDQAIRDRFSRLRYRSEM
UniProt Q8C7G5: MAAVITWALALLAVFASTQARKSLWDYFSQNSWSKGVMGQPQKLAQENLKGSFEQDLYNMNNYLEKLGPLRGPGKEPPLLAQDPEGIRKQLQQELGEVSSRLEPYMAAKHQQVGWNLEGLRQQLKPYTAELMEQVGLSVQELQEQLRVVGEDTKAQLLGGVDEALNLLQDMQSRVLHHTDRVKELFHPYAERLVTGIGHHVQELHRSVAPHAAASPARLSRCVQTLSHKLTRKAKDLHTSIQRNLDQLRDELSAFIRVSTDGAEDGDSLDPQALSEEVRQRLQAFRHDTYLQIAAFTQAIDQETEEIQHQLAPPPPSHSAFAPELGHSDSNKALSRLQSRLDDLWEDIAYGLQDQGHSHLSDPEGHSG
UniProt Q8BYK6: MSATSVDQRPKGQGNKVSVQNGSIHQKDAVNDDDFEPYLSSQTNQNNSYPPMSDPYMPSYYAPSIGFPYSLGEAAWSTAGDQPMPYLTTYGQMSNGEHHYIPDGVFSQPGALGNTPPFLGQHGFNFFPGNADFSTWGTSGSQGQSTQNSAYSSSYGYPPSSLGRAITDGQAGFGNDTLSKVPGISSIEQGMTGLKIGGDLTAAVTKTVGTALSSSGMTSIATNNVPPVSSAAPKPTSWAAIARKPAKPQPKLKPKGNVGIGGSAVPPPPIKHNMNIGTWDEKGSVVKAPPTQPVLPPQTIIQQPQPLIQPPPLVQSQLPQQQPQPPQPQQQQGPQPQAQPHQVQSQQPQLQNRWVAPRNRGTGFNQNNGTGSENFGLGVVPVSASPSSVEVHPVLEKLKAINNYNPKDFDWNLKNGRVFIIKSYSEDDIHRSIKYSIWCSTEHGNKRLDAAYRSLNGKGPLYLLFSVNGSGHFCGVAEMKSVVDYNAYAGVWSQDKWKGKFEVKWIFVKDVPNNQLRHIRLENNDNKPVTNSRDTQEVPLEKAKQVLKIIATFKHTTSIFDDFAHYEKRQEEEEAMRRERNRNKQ

What follows are targets tested with CN[C@@H]1C[C@H]2O[C@@](C)([C@@H]1OC)n1c3ccccc3c3c4c(c5c6ccccc6n2c5c31)C(=O)NC4 [staurosporine] (assay: log2 fold change of tryptic peptide abundance, ligand vs vehicle (limited proteolysis) (log2 ratio); higher = more trypsin-susceptible (destabilized)). Details: ligand concentration: 20 uM; sample: mouse liver crude lysate; replicate design: treated separately.
With “UniProt Q8C5Q4 (peptide sequence: ATGEADVHFDTHEDAVAAMLKDR, peptide start residue: 438)” the log2 fold change was 0.962. With “UniProt Q8BWH0 (peptide sequence: LLQSPCVDVVPK, peptide start residue: 25)” the log2 fold change was -0.0829. “UniProt Q8C754 (peptide sequence: KPMTNYQIPQAALLK, peptide start residue: 251)” was tested, and the log2 fold change was 0.55. “UniProt Q8BXR9 (peptide sequence: PDRHEGFMLK, peptide start residue: 86)” was tested, and the log2 fold change was 0.197. Target “UniProt Q8C6I2 (peptide sequence: TDESIETK, peptide start residue: 57)” has a log2 fold change of -0.385. “UniProt Q8BWQ5 (peptide sequence: HLGVEIEK, peptide start residue: 291)” gave a log2 fold change of 0.363. Target “UniProt Q8BVW0 (peptide sequence: LKINEETPLK, peptide start residue: 84)” has a log2 fold change of -0.202. Target “UniProt Q8C0L8 (peptide sequence: AAMPTPGSTAGFR, peptide start residue: 284)” has a log2 fold change of 0.155. Work on “UniProt Q8BXN9 (peptide sequence: MITHFER, peptide start residue: 545)” yielded a log2 fold change of 0.119. With “UniProt Q8BYH7 (peptide sequence: LQNVPELK, peptide start residue: 296)” the log2 fold change was -0.233. Target “UniProt Q8C8T8 (peptide sequence: VTATPLMTAK, peptide start residue: 122)” has a log2 fold change of 0.0119. In the case of “UniProt Q8BY02 (peptide sequence: VFLQDHCLAEGYGTK, peptide start residue: 380)”, the log2 fold change is reported as 0.587. With “UniProt Q8BW22 (peptide sequence: TAECTQYQQILHR, peptide start residue: 44)” the log2 fold change was -0.267. Target “UniProt Q8BYR2 (peptide sequence: YYQSGDHPR, peptide start residue: 860)” has a log2 fold change of -0.623. With “UniProt Q8BZT9 (peptide sequence: ACGVAHSGWK, peptide start residue: 296)” the log2 fold change was -0.695. “UniProt Q8C0I1 (peptide sequence: KFYITKFK, peptide start residue: 436)” was tested, and the log2 fold change was -0.0141. Work on “UniProt Q8BW70 (peptide sequence: QVGHQVLEAYAR, peptide start residue: 59)” yielded a log2 fold change of -0.261. In the case of “UniProt Q8C3I8 (peptide sequence: ELHSWEPEPDVR, peptide start residue: 324)”, the log2 fold change is reported as -0.302. “UniProt Q8C0M0 (peptide sequence: SSNLVVSHSR, peptide start residue: 790)” gave a log2 fold change of -0.143. “UniProt Q8BX10 (peptide sequence: EPLSLINLK, peptide start residue: 65)” gave a log2 fold change of 0.0935. For “UniProt Q8C0P7 (peptide sequence: ESSAEDCIVPTK, peptide start residue: 432)”, the log2 fold change was -0.321. For “UniProt Q8C0Z1 (peptide sequence: GSLGVDGDGVALLHVTR, peptide start residue: 257)”, the log2 fold change was 0.731. In the case of “UniProt Q8C7G5 (peptide sequence: ELFHPYAER, peptide start residue: 184)”, the log2 fold change is reported as 0.392. Work on “UniProt Q8BZZ3 (peptide sequence: QVLLTHNR, peptide start residue: 103)” yielded a log2 fold change of -0.189. Work on “UniProt Q8BYK6 (peptide sequence: QEEEEAMR, peptide start residue: 570)” yielded a log2 fold change of 0.338.
